Measurements reported in PubChem BioAssay AID1224826 (NIAID, 2016)
This is a random part of about 17,000 reagents tested. About 1,110 of them (6.6%) count as active. 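Active means lowered or raised reporter signal; replicate intensities are raw and not normalised per plate.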 Reagents against one gene are numbered here. Not all columns of the deposit are shown. Reagent sequences are not shown.

Screen: 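Regulators of Tlr4 signalling leading to Tnf-alpha expression in macrophages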 (primary screen)
System: RAW264.7 G9 macrophages from mouse bearing reporters for p65 (GFP) and the Tnf promoter (mCherry)
Knock-down reagent: siRNA pool against mouse genes, 100 nM
Duration: 16 h of LPS stimulation, after 2 days of siRNA transfection
Conditions: bacterial lipopolysaccharide (Salmonella minnesota R595), 10 ng/ml
Detection: 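Imaged Tnf reporter mCherry in nuclei, minus background, normalised per plate to the median and expressed as robust z-scores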
Reading the numbers: Tnf reporter robust z-score: higher = stronger Tnf promoter reporter signal after LPS
Call rule: 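Called active when robust z-score is at most -1.3, matching the median of the Tlr4 knock-down control, or over 3; control wells and wells with under 50 cells never active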
Calls: active = Tnf reporter clearly lowered or raised; inactive = no clear change in Tnf reporter

{"Gene": "Gpatch1", "reagent no.": 1, "Tnf reporter robust z-score": -1.07, "fewer than 50 cells in well": "enough cells in well", "Outcome": "inactive"}
{"Gene": "Ccdc88a", "reagent no.": 1, "Tnf reporter robust z-score": -0.37, "fewer than 50 cells in well": "enough cells in well", "Outcome": "inactive"}
{"Gene": "Ccdc88a", "reagent no.": 2, "Tnf reporter robust z-score": 0.36, "fewer than 50 cells in well": "enough cells in well", "Outcome": "inactive"}
{"Gene": "Nuak1", "reagent no.": 1, "Tnf reporter robust z-score": -0.81, "fewer than 50 cells in well": "enough cells in well", "Outcome": "inactive"}
{"Gene": "Nap1l5", "reagent no.": 1, "Tnf reporter robust z-score": 0.33, "fewer than 50 cells in well": "enough cells in well", "Outcome": "inactive"}
{"Gene": "Antxrl", "reagent no.": 1, "Tnf reporter robust z-score": -0.54, "fewer than 50 cells in well": "enough cells in well", "Outcome": "inactive"}
{"Gene": "Gtf2ird1", "reagent no.": 1, "Tnf reporter robust z-score": -0.36, "fewer than 50 cells in well": "enough cells in well", "Outcome": "inactive"}
{"Gene": "Sart3", "reagent no.": 1, "Tnf reporter robust z-score": -1.32, "fewer than 50 cells in well": "enough cells in well", "Outcome": "active"}
{"Gene": "Dusp12", "reagent no.": 1, "Tnf reporter robust z-score": -0.79, "fewer than 50 cells in well": "enough cells in well", "Outcome": "inactive"}
{"Gene": "Afap1l1", "reagent no.": 1, "Tnf reporter robust z-score": -0.29, "fewer than 50 cells in well": "enough cells in well", "Outcome": "inactive"}
{"Gene": "Stard5", "reagent no.": 1, "Tnf reporter robust z-score": 2.87, "fewer than 50 cells in well": "enough cells in well", "Outcome": "inactive"}
{"Gene": "Wfdc12", "reagent no.": 1, "Tnf reporter robust z-score": 0.86, "fewer than 50 cells in well": "enough cells in well", "Outcome": "inactive"}
{"Gene": "Fam111a", "reagent no.": 1, "fewer than 50 cells in well": "fewer than 50 cells per well; well left out of calls", "Outcome": "inactive"}
{"Gene": "Or2ak6", "reagent no.": 1, "Tnf reporter robust z-score": 2.74, "fewer than 50 cells in well": "enough cells in well", "Outcome": "inactive"}
{"Gene": "Fam3b", "reagent no.": 1, "Tnf reporter robust z-score": 1.66, "fewer than 50 cells in well": "enough cells in well", "Outcome": "inactive"}
{"Gene": "Apbb2", "reagent no.": 1, "Tnf reporter robust z-score": 1.65, "fewer than 50 cells in well": "enough cells in well", "Outcome": "inactive"}
{"Gene": "Sfxn3", "reagent no.": 1, "Tnf reporter robust z-score": 1.39, "fewer than 50 cells in well": "enough cells in well", "Outcome": "inactive"}
{"Gene": "Rbms2", "reagent no.": 1, "Tnf reporter robust z-score": 1.04, "fewer than 50 cells in well": "enough cells in well", "Outcome": "inactive"}
{"Gene": "Cyp3a13", "reagent no.": 1, "Tnf reporter robust z-score": 0.49, "fewer than 50 cells in well": "enough cells in well", "Outcome": "inactive"}
{"Gene": "Snrnp35", "reagent no.": 1, "Tnf reporter robust z-score": -1.74, "fewer than 50 cells in well": "enough cells in well", "Outcome": "active"}
{"Gene": "Sox11", "reagent no.": 1, "Tnf reporter robust z-score": 4.4, "fewer than 50 cells in well": "enough cells in well", "Outcome": "active"}
{"Gene": "Zfp275", "reagent no.": 1, "Tnf reporter robust z-score": 1.31, "fewer than 50 cells in well": "enough cells in well", "Outcome": "inactive"}
{"Gene": "Hoxc5", "reagent no.": 1, "Tnf reporter robust z-score": -0.12, "fewer than 50 cells in well": "enough cells in well", "Outcome": "inactive"}
{"Gene": "Pofut1", "reagent no.": 1, "Tnf reporter robust z-score": -1.52, "fewer than 50 cells in well": "enough cells in well", "Outcome": "active"}
{"Gene": "Cyp4f18", "reagent no.": 1, "Tnf reporter robust z-score": 0.72, "fewer than 50 cells in well": "enough cells in well", "Outcome": "inactive"}
{"Gene": "Gpr155", "reagent no.": 1, "Tnf reporter robust z-score": 0.28, "fewer than 50 cells in well": "enough cells in well", "Outcome": "inactive"}
{"Gene": "Amfr", "reagent no.": 1, "Tnf reporter robust z-score": 0.88, "fewer than 50 cells in well": "enough cells in well", "Outcome": "inactive"}
